These results are taken from PubChem BioAssay AID330 (DTP/NCI, 2004).

The list does not hold the whole screen: it gathers tests that were run many times, whatever their T/C, doses with no T/C, and many T/C values between a quarter and a half above the control. Further doses and runs are listed elsewhere. T/C is the treated group as % of the vehicle group. Some entries give survivors of the animals treated and no T/C: the source holds a T/C of zero for them, seemingly a mark for toxic or unscored doses. Some doses without a T/C left all or most animals alive at the check, yet need not have been tolerated: the source hardly ever lists a survival T/C far under the control, and the zero likely stands for such cases as well. Counts of survivors are from the toxicity check (mostly the fifth day) where no day follows; animals may have died later. Schedules are NCI's codes, read here as Q, the interval in days (D) or hours (H), X, the number of doses. Additions like (4×) give the number of equal values in this list. For survival time, the PubChem record calls one and a half times the control and up active, and a quarter to a half above the control has no call in these data; cut-offs in other NCI protocols can differ.

This assay relates to P388 leukemia ip, CD2F1 mice, survival T/C. As to the kind of experiment: NCI In Vivo Anticancer Drug Screen. Data for tumor model P388 Leukemia (intraperitoneal) in CD2F1 (CDF1) mice. To be noted: T/C endpoint: median survival time, higher T/C = longer survival.
[1] abbreviates: dose: 50.0 mg/kg/injection, schedule: Q01DX005 (ip), vehicle: Klucel (hydroxypropylcellulose) (HPC).
[2] abbreviates: dose: 100.0 mg/kg/injection, schedule: Q01DX005 (ip), vehicle: Klucel (hydroxypropylcellulose) (HPC).
[3] abbreviates: dose: 200.0 mg/kg/injection, schedule: Q01DX005 (ip), vehicle: Klucel (hydroxypropylcellulose) (HPC).
The mark [4] stands for this setting: dose: 100.0 mg/kg/injection, schedule: Q01DX005 (ip), vehicle: saline with Tween-80.
Setting [5] is: dose: 200.0 mg/kg/injection, schedule: Q01DX005 (ip), vehicle: saline with Tween-80.
Where [6] appears, read: dose: 240.0 mg/kg/injection, schedule: Q01DX005 (ip), vehicle: saline with Tween-80.
The mark [7] stands for this setting: dose: 200.0 mg/kg/injection, schedule: Q01DX009 (ip), vehicle: saline.

Turning to `O=C1C=C2C=CC3CC2(O1)C1CCCCN31` (stereo not drawn), the survivor count (dose: 5.0 mg/kg/injection, schedule: Q01DX010 (ip), vehicle: saline) is on record as 7 of 7; the survivor count (dose: 40.0 mg/kg/injection, schedule: Q01DX010 (ip), vehicle: saline) was 6 of 7; the survivor count (dose: 200.0 mg/kg/injection, schedule: Q01DX010 (ip), vehicle: saline) is 0 of 7 (2×).

Turning to `CN=C(c1ccc(NC(=O)c2cc(N)cc(C(=O)Nc3ccc(C(=NC)N(C)C)cc3)c2)cc1)N(C)C`, the survivor count reads like this: (dose: 25.0 mg/kg/injection, schedule: Q01DX005 (ip), vehicle: Klucel (hydroxypropylcellulose) (HPC)) 0 of 6; under setting [1], 0 of 6; under setting [2], 0 of 6; under setting [3], 0 of 6.

Consider `CCNC(CC)CCCNc1cc(OC)cc2cccnc12` (stereo not drawn), for which the survivor count is given as 0 of 5 (dose: 50.0 mg/kg/injection, schedule: Q01DX005 (ip), vehicle: saline with Tween-80); 0 of 5 under setting [4]; 0 of 5 under setting [5].

For the compound `Cc1cnc2ccccc2c1/C=C/c1ccc(N(C)C)cc1`, the T/C (dose: 100.0 mg/kg/injection, schedule: Q01DX009 (ip), vehicle: saline with Tween-80) is 140 % of control.

With `CN(C)CCCNc1ccc(O)c2c1C(=O)c1ccccc1C2=O`, for the setting “dose: 200.0 mg/kg/injection, schedule: Q01DX009 (ip), vehicle: water”, the survivor count is 6 of 6.

Regarding `O=C1N(C2CCCCC2)C(/C=C/c2ccccc2)C1(c1ccccc1)c1ccccc1` (stereo not drawn), the survivor count reads like this: under setting [1], 6 of 6; under setting [2], 6 of 6.

In the case of `NC[CH2][Sn]([c]1ccccc1)([CH]1CCCCC1)[CH]1CCCCC1`, the survivor count is 3 of 6 (dose: 15.0 mg/kg/injection, schedule: Q01DX005 (ip), vehicle: saline with Tween-80); 0 of 6 (dose: 30.0 mg/kg/injection, schedule: Q01DX005 (ip), vehicle: saline with Tween-80); 0 of 6 (dose: 60.0 mg/kg/injection, schedule: Q01DX005 (ip), vehicle: saline with Tween-80); 1 of 6 (dose: 120.0 mg/kg/injection, schedule: Q01DX005 (ip), vehicle: saline with Tween-80); 0 of 6 under setting [6].

Take `Cc1ccc2sc3c(ccc(=O)n3C)c(=O)c2c1`: the survivor count (dose: 400.0 mg/kg/injection, schedule: Q04DX002 (ip), vehicle: saline with Tween-80) is 0 of 6.

For the compound `CCCCCCCCCCCCCCCC[N+]1([O-])CCCCCC1`, the survivor count reads like this: (dose: 100.0 mg/kg/injection, schedule: Q01DX009 (ip), vehicle: saline) 6 of 6; under setting [7], 0 of 6.

Take `COc1cccc2c1C(=O)c1c(O)c3c(c(O)c1C2=O)CC(O)(C(=O)CO)CC3OC1CC(NCC2(O)OCC(O)C(O)C2O)C(O)C(C)O1` (stereo not drawn): the T/C (dose: 7.25 mg/kg/injection, schedule: Q04DX003 (ip), vehicle: water) was 142 % of control.

As for `COc1cc(Nc2ccccc2)c2c(c1N)C(=O)c1ccccc1C2=O`, the survivor count under setting [5] is given as 0 of 5.

For `COc1ccc(/C=C/C(C)=N/NC(N)=S)cc1OC`, the survivor count under setting [5] is recorded as 3 of 6.

For `Cc1ccc(S(=O)(=O)NNC(=O)c2nc3ccccc3c(=O)[nH]2)cc1`, the survivor count under setting [6] is given as 6 of 6.

Turning to `COc1ccc(CCN(C=O)CCc2ccc(OC)c(OC)c2)cc1OC`, the survivor count (dose: 50.0 mg/kg/injection, schedule: Q01DX009 (ip), vehicle: other) is given as 6 of 6.

`C=C1C(=O)C23C(OC(=O)/C=C/C)C1CCC2C12COC3(O)C(O)C1C(C)(C)CCC2O` (stereo not drawn): where the note is “dose: 30.0 mg/kg/injection, schedule: Q01DX009 (ip), vehicle: saline with Tween-80”, the survivor count was 5 of 6.

As to `CC(C)CNCC(=O)Nc1ccc(Cc2ccc(NC(=O)CNCC(C)C)cc2)cc1`, the survivor count under setting [5] is 3 of 6.

Turning to `CCOS(=O)(=O)c1ccc([N+](=O)[O-])cc1`, the survivor count runs as follows: (dose: 25.0 mg/kg/injection, schedule: Q01DX009 (ip), vehicle: saline) 6 of 6; (dose: 50.0 mg/kg/injection, schedule: Q01DX009 (ip), vehicle: saline) 6 of 6; under setting [7], 4 of 6.

In the case of `O=C(CCN1CC1)Nc1ccc(NC(=O)CCN2CC2)cc1`, the T/C was 141 % of control (dose: 2.5 mg/kg/injection, schedule: Q04DX003 (ip), vehicle: Klucel (hydroxypropylcellulose) (HPC)) and 141 % of control (dose: 5.0 mg/kg/injection, schedule: Q04DX003 (ip), vehicle: Klucel (hydroxypropylcellulose) (HPC)). For the same compound, the survivor count (dose: 40.0 mg/kg/injection, schedule: Q04DX003 (ip), vehicle: Klucel (hydroxypropylcellulose) (HPC)) was 2 of 6.

In the case of `CN(C)C(=O)Sc1nnc(C(C)(C)C)o1`, the survivor count under setting [3] is 3 of 5.

Consider `CC1=CC=C(C(=O)C(Br)C(Br)c2ccccc2)C1` (stereo not drawn), for which the survivor count was 6 of 6 (dose: 50.0 mg/kg/injection, schedule: Q01DX009 (ip), vehicle: Klucel (hydroxypropylcellulose) (HPC)); 6 of 6 (dose: 100.0 mg/kg/injection, schedule: Q01DX009 (ip), vehicle: Klucel (hydroxypropylcellulose) (HPC)); 6 of 6 (dose: 200.0 mg/kg/injection, schedule: Q01DX009 (ip), vehicle: Klucel (hydroxypropylcellulose) (HPC)).

Turning to `CCC(c1ccc(OCC(=O)OCCNCCCl)cc1)C(CC)c1ccc(OCC(=O)OCCNCCCl)cc1` (stereo not drawn), the survivor count (dose: 400.0 mg/kg/injection, schedule: Q04DX002 (ip), vehicle: suspension in saline) is given as 1 of 6.

For the compound `CCn1c2ccccc2c2cc(NC(N)=S)ccc21`, the survivor count runs as follows: under setting [4], 2 of 5; under setting [5], 0 of 5.

For the compound `[Se]=P(c1ccccc1)(N1CCOCC1)N1CCOCC1`, the survivor count (dose: 55.0 mg/kg/injection, schedule: Q01DX001 (ip), vehicle: Klucel (hydroxypropylcellulose) (HPC)) is given as 1 of 6.
